Assay results from patent US8927548B2, “Triazole compounds that modulate HSP90 activity” (Synta Pharmaceuticals Corp., priority 2006, dated 2015).
Some entries share one result that the patent states for a list of compounds.

test system: Hsp90; assay: Degradation of Her2 / inhibition of Hsp90, Method 2: MV-4-11 cell survival after 72 hours (Cell Counting Kit-8); assay type: cell-based, human; details: Table 4, IC50 range, MV-4-11 cells
Protocol: MV-4-11 cells (20,000 cells/well) were cultured in 96-well plates and maintained at 37° C. for several hours. The cells were treated with a compound of the invention or 17AAG (a positive control) at various concentrations and incubated at 37° C. for 72 hours. Cell survival was measured with Cell Counting Kit-8 (Dojindo Laboratories, Cat. # CK04). […] Tables 4-6: IC50 range of compounds of the invention for inhibition of Hsp90

`CCc1cc(-c2nnc(S)n2-c2ccc3c(c2)CS(=O)(=O)C3)c(O)cc1O` [Compound 1, 4-[4-(2,2-dioxo-2,3-dihydro-1H-2λ^6-benzo[c]thiophen-5-yl)-5-mercapto-4H-[1,2,4]triazol-3-yl]-6-ethyl-benzene-1,3-diol] and `CCc1cc(-c2nnc(S)n2-c2ccc3c(c2)CC(=O)N3C)c(O)cc1O` [Compound 2, 5-(3-(5-ethyl-2,4-dihydroxyphenyl)-5-mercapto-4H-1,2,4-triazol-4-yl)-1-methylindolin-2-one] cannot be ordered by IC50: greater than 1000 nM for the first, greater than 1000 nM for the second.

`CC(C)c1cc(-c2nnc(S)n2-c2cccc3c2CCCC3)c(O)cc1O` [Compound 3, 4-isopropyl-6-(5-mercapto-4-(5,6,7,8-tetrahydronaphthalen-1-yl)-4H-1,2,4-triazol-3-yl)benzene-1,3-diol] and `CC(C)c1cc(-c2nnc(S)n2-c2ccc3c(c2)CC(O)C3)c(O)cc1O` (centres unmarked) [Compound 4, 4-[4-(2-Hydroxy-indan-5-yl)-5-mercapto-4H-[1,2,4]triazol-3-yl]-6-isopropyl-benzene-1,3-diol] cannot be ordered by IC50: less than 300 nM for the first, less than 300 nM for the second.

`CCN1Cc2ccc(-n3c(S)nnc3-c3cc(C(C)C)c(O)cc3O)cc2C1` [Compound 5, 4-(4-(2-ethylisoindolin-5-yl)-5-mercapto-4H-1,2,4-triazol-3-yl)-6-isopropylbenzene-1,3-diol] and `CC(C)c1cc(-c2nnc(S)n2-c2ccc3c(c2)CN(C)C3)c(O)cc1O` [Compound 7, 4-isopropyl-6-(5-mercapto-4-(2-methylisoindolin-5-yl)-4H-1,2,4-triazol-3-yl)benzene-1,3-diol] cannot be ordered by IC50: less than 300 nM for the first, less than 300 nM for the second.

`COC1Cc2ccc(-n3c(S)nnc3-c3cc(C(C)C)c(O)cc3O)cc2C1` (centres unmarked) [Compound 6, 4-Isopropyl-6-[5-mercapto-4-(2-methoxy-indan-5-yl)-4H-[1,2,4]triazol-3-yl]-benzene-1,3-diol] and `CCOC1Cc2ccc(-n3c(S)nnc3-c3cc(C(C)C)c(O)cc3O)cc2C1` (centres unmarked) [Compound 8, 4-[4-(2-Ethoxy-indan-5-yl)-5-mercapto-4H-[1,2,4]triazol-3-yl]-6-isopropyl-benzene-1,3-diol] cannot be ordered by IC50: less than 75 nM for the first, less than 75 nM for the second.

`CCCOC1Cc2ccc(-n3c(S)nnc3-c3cc(C(C)C)c(O)cc3O)cc2C1` (centres unmarked) [Compound 9, 4-Isopropyl-6-[5-mercapto-4-(2-propoxy-indan-5-yl)-4H-[1,2,4]triazol-3-yl]-benzene-1,3-diol] and `COCOC1Cc2ccc(-n3c(S)nnc3-c3cc(C(C)C)c(O)cc3O)cc2C1` (centres unmarked) [Compound 18, 4-Isopropyl-6-[5-mercapto-4-(2-methoxymethoxy-indan-5-yl)-4H-[1,2,4]triazol-3-yl]-benzene-1,3-diol] cannot be ordered by IC50: less than 75 nM for the first, less than 75 nM for the second.

`CC(C)c1cc(-c2nnc(S)n2-c2ccc3c(c2)CC2(C3)OCCO2)c(O)cc1O` [Compound 10, [4-(1′,3′-Dihydro-spiro[[1,3]dioxolane-2,2′-inden]-5′-yl)-5-mercapto-4H-[1,2,4]triazol-3-yl]-6-isopropyl-benzene-1,3-diol] and `CC(C)c1cc(-c2nnc(O)n2-c2ccc3c(c2)CC2(C3)OCCO2)c(O)cc1O` [Compound 19, 4-[4-(1′,3′-Dihydro-spiro[[1,3]dioxolane-2,2′-inden]-5′-yl)-5-hydroxy-4H-[1,2,4]triazol-3-yl]-6-isopropyl-benzene-1,3-diol] cannot be ordered by IC50: less than 75 nM for the first, less than 30 nM for the second.

`CC(C)c1cc(-c2nnc(S)n2-c2ccc3c(c2)CC(N2CCOCC2)C3)c(O)cc1O` (centres unmarked) [Compound 15, 4-Isopropyl-6-[5-mercapto-4-(2-morpholin-4-yl-indan-5-yl)-4H-[1,2,4]triazol-3-yl]-benzene-1,3-diol] and `CC(C)c1cc(-c2nnc(S)n2-c2ccc3c(c2)CC(N2CCCC2)C3)c(O)cc1O` (centres unmarked) [Compound 16, 4-Isopropyl-6-[5-mercapto-4-(2-pyrrolidin-1-yl-indan-5-yl)-4H-[1,2,4]triazol-3-yl]-benzene-1,3-diol] cannot be ordered by IC50: less than 300 nM for the first, less than 300 nM for the second.

`COC1Cc2ccc(-n3c(O)nnc3-c3cc(C(C)C)c(O)cc3O)cc2C1` (centres unmarked) [Compound 17, 4-[5-Hydroxy-4-(2-methoxy-indan-5-yl)-4H-[1,2,4]triazol-3-yl]-6-isopropyl-benzene-1,3-diol] and `COCOC1Cc2ccc(-n3c(O)nnc3-c3cc(C(C)C)c(O)cc3O)cc2C1` (centres unmarked) [Compound 21, 4-[5-Hydroxy-4-(2-methoxymethoxy-indan-5-yl)-4H-[1,2,4]triazol-3-yl]-6-isopropyl-benzene-1,3-diol] cannot be ordered by IC50: less than 30 nM for the first, less than 30 nM for the second.

`CCOCOC1Cc2ccc(-n3c(O)nnc3-c3cc(C(C)C)c(O)cc3O)cc2C1` (centres unmarked) [Compound 22, 4-[4-(2-Ethoxymethoxy-indan-5-yl)-5-hydroxy-4H-[1,2,4]triazol-3-yl]-6-isopropyl-benzene-1,3-diol] and `CC(C)c1cc(-c2nnc(O)n2-c2ccc3c(c2)CC(N(C)C)C3)c(O)cc1O` (centres unmarked) [Compound 24, 4-[4-(2-Dimethylamino-indan-5-yl)-5-hydroxy-4H-[1,2,4]triazol-3-yl]-6-isopropyl-benzene-1,3-diol] cannot be ordered by IC50: less than 75 nM for the first, less than 75 nM for the second.

`COCCN1Cc2ccc(-n3c(O)nnc3-c3cc(C(C)C)c(O)cc3O)cc2C1` [Compound 26, 4-(5-hydroxy-4-(2-(2-methoxyethyl)isoindolin-5-yl)-4H-1,2,4-triazol-3-yl)-6-isopropylbenzene-1,3-diol] and `COCCN(C)C1Cc2ccc(-n3c(O)nnc3-c3cc(C(C)C)c(O)cc3O)cc2C1` (centres unmarked) [Compound 29, 4-(5-Hydroxy-4-{2-[(2-methoxy-ethyl)-methyl-amino]-indan-5-yl}-4H-[1,2,4]triazol-3-yl)-6-isopropyl-benzene-1,3-diol] cannot be ordered by IC50: less than 75 nM for the first, less than 75 nM for the second.

Compared with `CC(C)c1cc(-c2nnc(O)n2-c2ccc3c(c2)CC(N2CCCC2)C3)c(O)cc1O` (centres unmarked) [Compound 27, 4-[5-Hydroxy-4-(2-pyrrolidin-1-yl-indan-5-yl)-4H-[1,2,4]triazol-3-yl]-6-isopropyl-benzene-1,3-diol], `CCc1cc(-c2nnc(S)n2-c2ccc3scnc3c2)c(O)cc1O` [Compound 30, 4-(4-Benzothiazol-5-yl-5-mercapto-4H-[1,2,4]triazol-3-yl)-6-ethyl-benzene-1,3-diol] is higher in IC50: less than 75 nM for the first, greater than 1000 nM for the second.

same assay, conditions: Table 5, IC50 range, MV-4-11 cells

First: COc1ccc(CCc2cc(-c3nnc(O)n3-c3ccc4c(ccn4C)c3)c(O)cc2O)cc1OC [Compound 1a, 4-[2-(3,4-Dimethoxy-phenyl)-ethyl]-6-[5-hydroxy-4-(1-methyl-1H-indol-5-yl)-4H-[1,2,4]triazol-3-yl]-benzene-1,3-diol]
Second: COc1cc(CCc2cc(-c3nnc(O)n3-c3ccc4c(ccn4C)c3)c(O)cc2O)cc(OC)c1OC [Compound 5a, 4-[5-Hydroxy-4-(1-methyl-1H-indol-5-yl)-4H-[1,2,4]triazol-3-yl]-6-[2-(3,4,5-trimethoxy-phenyl)-ethyl]-benzene-1,3-diol]
The IC50 of the first is lower: less than 500 nM for the first, greater than 1000 nM for the second.

Compared with `Cn1ccc2cc(-n3c(O)nnc3-c3cc(CCc4ccccc4)c(O)cc3O)ccc21` [Compound 2a, 4-[5-hydroxy-4-(1-methyl-1H-indol-5-yl)-4H-[1,2,4]triazol-3-yl]-6-phenethyl-benzene-1,3-diol], `COc1cccc(CCc2cc(-c3nnc(O)n3-c3ccc4c(ccn4C)c3)c(O)cc2O)c1` [Compound 9a, 4-[5-Hydroxy-4-(1-methyl-1H-indol-5-yl)-4H-[1,2,4]triazol-3-yl]-6-[2-(3-methoxy-phenyl)-ethyl]-benzene-1,3-diol] is higher in IC50: less than 775 nM for the first, greater than 1000 nM for the second.

`Cn1ccc2cc(-n3c(O)nnc3-c3cc(CCc4c(F)cccc4F)c(O)cc3O)ccc21` [Compound 3a, 4-[2-(2,6-Difluoro-phenyl)-ethyl]-6-[5-hydroxy-4-(1-methyl-1H-indol-5-yl)-4H-[1,2,4]triazol-3-yl]-benzene-1,3-diol] and `Cn1ccc2cc(-n3c(O)nnc3-c3cc(CCc4ccc(C#N)cc4)c(O)cc3O)ccc21` [Compound 4a, 4-(2-{2,4-Dihydroxy-5-[5-hydroxy-4-(1-methyl-1H-indol-5-yl)-4H-[1,2,4]triazol-3-yl]-phenyl}-ethyl)-benzonitrile] cannot be ordered by IC50: less than 175 nM for the first, less than 500 nM for the second.

First: Cn1ccc2cc(-n3c(O)nnc3-c3cc(CCc4c(F)c(F)c(F)c(F)c4F)c(O)cc3O)ccc21 [Compound 6a, 4-[5-Hydroxy-4-(1-methyl-1H-indol-5-yl)-4H-[1,2,4]triazol-3-yl]-6-(2-pentafluorophenyl-ethyl)-benzene-1,3-diol]
Second: COc1ccc(CCc2cc(-c3nnc(O)n3-c3ccc4c(ccn4C)c3)c(O)cc2O)cc1 [Compound 8a, 4-[5-Hydroxy-4-(1-methyl-1H-indol-5-yl)-4H-[1,2,4]triazol-3-yl]-6-[2-(4-methoxy-phenyl)-ethyl]-benzene-1,3-diol]
The IC50 of the first is lower: less than 775 nM for the first, greater than 1000 nM for the second. The first is the more potent here.

`CC(Cc1ccc2c(c1)OCO2)c1cc(-c2nnc(O)n2-c2ccc3c(ccn3C)c2)c(O)cc1O` (centres unmarked) [Compound 7a, 4-(2-Benzo[1,3]dioxol-5-yl-1-methyl-ethyl)-6-[5-hydroxy-4-(1-methyl-1H-indol-5-yl)-4H-[1,2,4]triazol-3-yl]-benzene-1,3-diol] and `COc1ccc(CC(C)c2cc(-c3nnc(O)n3-c3ccc4c(ccn4C)c3)c(O)cc2O)cc1OC` (centres unmarked) [Compound 11a, 4-(1-(3,4-dimethoxyphenyl)propan-2-yl)-6-(5-hydroxy-4-(1-methyl-1H-indol-5-yl)-4H-1,2,4-triazol-3-yl)benzene-1,3-diol] cannot be ordered by IC50: less than 175 nM for the first, less than 175 nM for the second.

`CC(Cc1ccccc1)c1cc(-c2nnc(O)n2-c2ccc3c(ccn3C)c2)c(O)cc1O` (centres unmarked) [Compound 10a, 4-[5-Hydroxy-4-(1-methyl-1H-indol-5-yl)-4H-[1,2,4]triazol-3-yl]-6-(1-methyl-2-phenyl-ethyl)-benzene-1,3-diol] gave an IC50 of less than 175 nM.

same assay, conditions: Table 6, IC50 range, MV-4-11 cells

`Cn1ccc2cc(-n3c(O)nnc3-c3ccc(CCO)cc3O)ccc21` [Compound 8b, 3-(2-hydroxy-4-(2-hydroxyethyl)phenyl)-4-(1-methyl-1H-indol-5-yl)-1H-1,2,4-triazol-5(4H)-one] and `Cn1ccc2cc(-n3c(O)nnc3-c3ccc(C(=O)O)cc3O)ccc21` [Compound 9b, 3-hydroxy-4-(5-hydroxy-4-(1-methyl-1H-indol-5-yl)-4H-1,2,4-triazol-3-yl)benzoic acid] cannot be ordered by IC50: greater than 10000 nM for the first, greater than 10000 nM for the second.
